The list shows only some results of the screen, not a fair sample: its compounds were picked by chemical class. Other doses and runs of a compound may be missing. T/C gives the treated animals as a percentage of the vehicle group. Some entries give survivors of the animals treated and no T/C: the source files T/C as zero there, which appears to mark a toxic dose or a test without result, not a measured value. Some survivor counts are full or nearly so, which does not show that the dose was tolerated: survival well below the control is almost never listed, so the zero probably covers shortened survival too. Counts of survivors are from the toxicity check (mostly the fifth day) where no day follows; animals may have died later. Schedule codes are those of the source, read here as Q, the interval in days (D) or hours (H), X, the number of doses. Some schedule codes hold Z or #, which are not explained here. Where survival is the endpoint, the PubChem record calls one and a half times the control and up active, and a quarter to a half above the control has no call in these data; cut-offs in other NCI protocols can differ. Some entries show no survivor count and are marked so; the dose need not have been tolerated. Some T/C values are followed by the survivors on the day toxicity was checked, most often the fifth; where neither a count nor a note follows, no animal had died by that day.
System: L1210 leukemia ip in BDF1 mice, survival T/C
Test: NCI In Vivo Anticancer Drug Screen. Data for tumor model L1210 Leukemia (intraperitoneal) in B6D2F1 (BDF1) mice
Conditions: T/C endpoint: mean survival time, higher T/C = longer survival
[1] = dose: 100.0 mg/kg/injection, schedule: Q04DX003 (ip), vehicle: other
[2] = dose: 200.0 mg/kg/injection, schedule: Q04DX003 (ip), vehicle: other
[3] = dose: 400.0 mg/kg/injection, schedule: Q04DX003 (ip), vehicle: other
[4] = dose: 50.0 mg/kg/injection, schedule: Q01DX009 (ip), vehicle: saline
[5] = dose: 100.0 mg/kg/injection, schedule: Q01DX009 (ip), vehicle: saline
[6] = dose: 200.0 mg/kg/injection, schedule: Q01DX009 (ip), vehicle: saline
[7] = dose: 100.0 mg/kg/injection, schedule: Q01DX001 (ip), vehicle: saline
[8] = dose: 200.0 mg/kg/injection, schedule: Q01DX001 (ip), vehicle: saline
[9] = dose: 400.0 mg/kg/injection, schedule: Q01DX001 (ip), vehicle: saline
[10] = dose: 50.0 mg/kg/injection, schedule: Q01DX001 (ip), vehicle: saline
[11] = dose: 100.0 mg/kg/injection, schedule: Q01DX009 (ip), vehicle: Klucel (hydroxypropylcellulose) (HPC)
[12] = dose: 200.0 mg/kg/injection, schedule: Q01DX009 (ip), vehicle: Klucel (hydroxypropylcellulose) (HPC)
[13] = dose: 400.0 mg/kg/injection, schedule: Q01DX009 (ip), vehicle: Klucel (hydroxypropylcellulose) (HPC)

In the case of `CC(C)SC(OC(=O)COc1ccc(Cl)cc1Cl)C(Cl)(Cl)Cl` (configuration not stated), the T/C (dose: 100.0 mg/kg/injection, schedule: Q01DX009 (ip), vehicle: other) is reported as 90 % of control, the T/C [1] is reported as 92 % of control and the T/C (dose: 200.0 mg/kg/injection, schedule: Q01DX009 (ip), vehicle: other) is reported as 95 % of control. The T/C [2] was 100 % of control, the survivor count (dose: 400.0 mg/kg/injection, schedule: Q01DX009 (ip), vehicle: other) was 6 of 6 and the T/C [3] was 108 % of control.

With `CN(C)CCOC(=O)C(O)(Cc1ccccc1)c1ccccc1` (configuration not stated) the T/C [4] was 105 % of control, the T/C [5] was 105 % of control and the T/C [6] was 94 % of control.

With `CC1([N+](=O)[O-])COP(=O)(N(CCCl)CCCl)OC1` (configuration not stated) the T/C (dose: 100.0 mg/kg/injection, schedule: Q01DX Z (ip), vehicle: carboxymethylcellulose (CMC)) was 109 % of control, the survivor count (dose: 200.0 mg/kg/injection, schedule: Q01DX Z (ip), vehicle: carboxymethylcellulose (CMC)) was 6 of 6 and the survivor count (dose: 400.0 mg/kg/injection, schedule: Q01DX Z (ip), vehicle: carboxymethylcellulose (CMC)) was 0 of 6. The survivor count (dose: 600.0 mg/kg/injection, schedule: Q01DX Z (ip), vehicle: carboxymethylcellulose (CMC)) was 2 of 6.

For `COP1OC(C)C(C)(C)O1` (configuration not stated), the T/C [7] was 102 % of control, the T/C [8] was 96 % of control and the T/C [9] was 93 % of control.

With `O=C1CCOP(=O)(N(CCCl)CCCl)N1` (configuration not stated) the T/C (dose: 100.0 mg/kg/injection, schedule: Q04DX002 (ip), vehicle: Klucel (hydroxypropylcellulose) (HPC)) was 96 % of control, the T/C (dose: 200.0 mg/kg/injection, schedule: Q04DX002 (ip), vehicle: Klucel (hydroxypropylcellulose) (HPC)) was 99 % of control and the T/C (dose: 400.0 mg/kg/injection, schedule: Q04DX002 (ip), vehicle: Klucel (hydroxypropylcellulose) (HPC)) was 105 % of control.

In the case of `COP1OC(C)C(C)O1` (configuration not stated), the T/C [7] is reported as 98 % of control, the T/C [8] is reported as 96 % of control and the T/C [9] is reported as 113 % of control [3 of 4 alive].

For `C=C1N2CCC(CC2)C1(OC(=O)CC)c1ccccc1` (configuration not stated), the T/C [10] was 103 % of control, the T/C [7] was 100 % of control [5 of 6 alive] and the survivor count [8] was 2 of 6.

With `ClCCN(CCCl)c1ccc(C2OCCO2)cc1.[C-]#[O+].[C-]#[O+].[C-]#[O+].[Cr]` the T/C [11] was 97 % of control, the T/C [12] was 87 % of control and the survivor count [13] was 6 of 6.

With `CC(C)CO[P+](=O)OCC(C)C` the T/C [10] was 105 % of control, the T/C [4] was 92 % of control and the T/C [7] was 108 % of control. For the same compound, the T/C [5] was 105 % of control, the T/C [8] was 105 % of control and the T/C [6] was 92 % of control. For the same compound, the survivor count [9] was 1 of 4.

With `Cc1c(C(=O)N(CCCl)CCCl)[nH]c2ccccc12` the T/C (dose: 6.25 mg/kg/injection, schedule: Q04DX002 (ip), vehicle: saline) was 94 % of control, the T/C (dose: 12.5 mg/kg/injection, schedule: Q04DX002 (ip), vehicle: saline) was 88 % of control and the T/C (dose: 25.0 mg/kg/injection, schedule: Q04DX002 (ip), vehicle: saline) was 102 % of control. The T/C (dose: 35.0 mg/kg/injection, schedule: Q04DX002 (ip), vehicle: saline) was 96 % of control, the T/C (dose: 55.0 mg/kg/injection, schedule: Q04DX002 (ip), vehicle: saline) was 102 % of control and the T/C (dose: 80.0 mg/kg/injection, schedule: Q04DX002 (ip), vehicle: saline) was 100 % of control. The T/C (dose: 120.0 mg/kg/injection, schedule: Q04DX002 (ip), vehicle: saline) was 111 % of control, the T/C (dose: 180.0 mg/kg/injection, schedule: Q04DX002 (ip), vehicle: saline) was 108 % of control and the T/C (dose: 270.0 mg/kg/injection, schedule: Q04DX002 (ip), vehicle: saline) was 96 % of control.

In the case of `N#Cc1[nH]cnc1/N=N\N(CCCl)CCCl`, the T/C (dose: 50.0 mg/kg/injection, schedule: Q04DX003 (ip), vehicle: other) is reported as 102 % of control, the T/C (dose: 100.0 mg/kg/injection, schedule: Q01DX001 (ip), vehicle: other) is reported as 106 % of control and the T/C (dose: 100.0 mg/kg/injection, schedule: Q01DX009 (ip), vehicle: saline with Tween-80) is reported as 104 % of control. For the same compound, the T/C [1] was 101 % of control, the T/C (dose: 200.0 mg/kg/injection, schedule: Q01DX001 (ip), vehicle: other) was 101 % of control and the T/C (dose: 200.0 mg/kg/injection, schedule: Q01DX009 (ip), vehicle: saline with Tween-80) was 107 % of control. The T/C [2] was 106 % of control, the T/C (dose: 400.0 mg/kg/injection, schedule: Q01DX001 (ip), vehicle: other) was 104 % of control and the T/C (dose: 400.0 mg/kg/injection, schedule: Q01DX009 (ip), vehicle: saline with Tween-80) was 104 % of control. The T/C [3] was 108 % of control.

For `CCOP(C)(=S)Cl` (configuration not stated), the T/C (dose: 12.5 mg/kg/injection, schedule: Q04DX002 (ip), vehicle: saline with Tween-80) was 105 % of control [survivor count not shown], the T/C (dose: 25.0 mg/kg/injection, schedule: Q04DX002 (ip), vehicle: saline with Tween-80) was 97 % of control [survivor count not shown] and the T/C (dose: 50.0 mg/kg/injection, schedule: Q04DX002 (ip), vehicle: saline with Tween-80) was 87 % of control [survivor count not shown].

In the case of `ClCCNc1nc2cc(Br)ccc2c2ccc(Br)cc12`, the T/C (dose: 75.0 mg/kg/injection, schedule: Q01DX001 (ip), vehicle: carboxymethylcellulose (CMC)) is reported as 104 % of control, the T/C (dose: 75.0 mg/kg/injection, schedule: Q04DX003 (ip), vehicle: Klucel (hydroxypropylcellulose) (HPC)) is reported as 107 % of control and the T/C (dose: 150.0 mg/kg/injection, schedule: Q01DX001 (ip), vehicle: carboxymethylcellulose (CMC)) is reported as 106 % of control. The T/C (dose: 150.0 mg/kg/injection, schedule: Q04DX003 (ip), vehicle: Klucel (hydroxypropylcellulose) (HPC)) was 100 % of control, the T/C (dose: 300.0 mg/kg/injection, schedule: Q01DX001 (ip), vehicle: carboxymethylcellulose (CMC)) was 102 % of control [4 of 6 alive] and the T/C (dose: 300.0 mg/kg/injection, schedule: Q04DX003 (ip), vehicle: Klucel (hydroxypropylcellulose) (HPC)) was 100 % of control.

With `CN(Nc1c([N+](=O)[O-])cc([N+](=O)[O-])cc1[N+](=O)[O-])c1ccccc1` the T/C [11] was 113 % of control [survivor count not shown], the T/C (dose: 100.0 mg/kg/injection, schedule: Q04DX003 (ip), vehicle: Klucel (hydroxypropylcellulose) (HPC)) was 102 % of control [survivor count not shown] and the T/C [12] was 98 % of control [survivor count not shown]. For the same compound, the T/C (dose: 200.0 mg/kg/injection, schedule: Q04DX003 (ip), vehicle: Klucel (hydroxypropylcellulose) (HPC)) was 96 % of control [survivor count not shown], the T/C [13] was 112 % of control [survivor count not shown] and the T/C (dose: 400.0 mg/kg/injection, schedule: Q04DX003 (ip), vehicle: Klucel (hydroxypropylcellulose) (HPC)) was 94 % of control [survivor count not shown].

With `C=CC1CN2CCC1CC2C(O)c1ccnc2ccc(OC)cc12.O=C(O)c1c([N+](=O)[O-])cc([N+](=O)[O-])c(-c2c([N+](=O)[O-])cc([N+](=O)[O-])c(C(=O)O)c2[N+](=O)[O-])c1[N+](=O)[O-]` the T/C (dose: 100.0 mg/kg/injection, schedule: Q01DX001 (ip), vehicle: Klucel (hydroxypropylcellulose) (HPC)) was 103 % of control, the T/C (dose: 200.0 mg/kg/injection, schedule: Q01DX001 (ip), vehicle: Klucel (hydroxypropylcellulose) (HPC)) was 92 % of control and the T/C (dose: 400.0 mg/kg/injection, schedule: Q01DX001 (ip), vehicle: Klucel (hydroxypropylcellulose) (HPC)) was 92 % of control.
